Percent effect of library compounds

Mtb glucose medium: 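Phenotypic screen: M. tuberculosis growth, glucose 7H9 medium, 3 days; the read-out is not stated. Tested at 50 µM. The record gives no direction; compounds that gave an IC50 in retests scored well above the rest, so higher reads as more growth inhibition. Size under these conditions: about 69,000 compounds, about 760 of them at 50% or above in at least one test.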
Mtb cholesterol medium: 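Phenotypic screen: M. tuberculosis growth, cholesterol and DPPC medium, 4 days; the read-out is not stated. Compounds at 50 µM. The record gives no direction; compounds that gave an IC50 in retests scored well above the rest, so higher reads as more growth inhibition. Of about 69,000 compounds tested this way, about 370 (0.54%) reached 50% or more in at least one test.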

Values are the deposited “Percent Effect”, in %. The controls that fix the scale are not given in the record; negative values are as filed. Compounds were drawn at random from those tested, without regard to their results. Two or more numbers in one place are separate tests of the same structure; such repeats can differ widely.

Compound,Mtb glucose medium,Mtb cholesterol medium
Cc1cc(CNCc2c(C)nn(C)c2N2CCOCC2)no1,-18.13%,-7.174%
CC(C)N1CCC(NCc2cccnc2N(C)Cc2ccccc2)CC1,5.068%,23.35%
NC(=O)C1CCN(C(=O)C2SCCc3sccc32)CC1 (stereo unspecified),-4.718% & -49.38%,-6.857%
CN1CCCCC1c1cncc(N2CCC(O)CC2)n1 (stereo unspecified),-14.8%,1.096% & 3.677%
N#Cc1ccc(N2CCCC2Cn2cccn2)nc1 (stereo unspecified),11.52%,-4.926% & 7.734%
CC(=O)CSc1nnc2n1N=CN(c1cccc(Cl)c1)C2,2.111% & 1.314%,-4.574%
Cn1cc(CN2CCCC(CCc3ccc(F)cc3F)C2)cn1 (stereo unspecified),2.071%,9.703%
Cc1ccc(S(=O)(=O)NC(CO)CC(C)C)cc1N(C)C (stereo unspecified),-13.57%,-25.86%
O=C(O)C(F)(F)F.c1ccc(N2CCOC3(CCCN(c4ncccn4)C3)C2)nc1 (stereo unspecified),23.18%,-20.71%
Cn1ccnc1CN1CCc2ncnc(N3CCCC3)c2CC1.O=C(O)C(F)(F)F,-11.97% & -0.4954%,-11%
Cc1nn(CCO)c(C)c1CNC1CCc2c(F)cccc21 (stereo unspecified),6.816%,-0.7736%
[H][C@@]1([C@H](C)C(=O)O)CCc2c(C)cc(OC)c(C)c2C1,-4.68% & -2.494%,-26.15%
CC(C)c1nc(N2CCC(N3CCCC(O)C3)CC2)c2cnn(C)c2n1 (stereo unspecified),19.4%,17.59%
CC(C)C(=O)N1CCC2(CC1)NC(=O)c1ccccc12.Cl,-20.09% & -4.429%,13.31%
Cc1ccc(NC2CCN(C(=O)COc3ccccc3)CC2)nn1,-0.29%,12.29%
Cc1[nH]ccc1C(=O)Nc1cccc(CN2CCC(CO)CC2)c1,-17.63% & -36.87%,1.515%
COc1ncccc1CNCc1c(C(C)C)nn(C)c1N(C)C,9.162%,-9.104%
Cc1ccsc1CNCCCOc1ccccn1,14.89%,5.082%
COc1ccc(F)c(CN2CCC3(CCC(=O)N(CC(N)=O)C3)CC2)c1,-5.166%,-38.73%
O=C(NCC1CCOC1)c1csc(-c2ccccc2)n1 (stereo unspecified),33.24%,15.03%
CN1CCC(c2cc(C(F)(F)F)n3ccnc3n2)CC1,-52.52%,-39.45%
O=C(O)C(F)(F)F.[H][C@@]12CN(C(=O)c3ccccc3)CCO[C@]1([H])CN(c1ccc(C)nn1)C2,-10.76% & -86.86%,-28.54%
O=C(O)C(F)(F)F.[H][C@@]12C[C@H](C(=O)NC3CC3)CN(Cc3ccc(F)cc3)[C@]1([H])CCO2,-3.909% & -7.166%,-7.036%
c1cnc(N2CCC3(CCCN(CC4CCCCC4)C3)C2)cn1 (stereo unspecified),36.49%,-0.05025%
CCOC(=O)c1coc(N2CCN(C(=O)c3cccc(OC)c3)CC2)n1,-4.605% & -5.283%,-4.421%
CCN1CC(CN(C)c2cc(C)nc(N)n2)Oc2ccccc21 (stereo unspecified),30.77% & 30.41%,37.99%
CN1CC2(CCN(C(=O)c3ccc4nonc4c3)CC2)CC1=O,-32.38%,-1.704% & -9.215%
CCCc1n[nH]c(C2CN(CCc3cccs3)CCO2)n1 (stereo unspecified),-30.29%,-7.925%
O=C(O)C(F)(F)F.[H][C@@]12CN(Cc3ccoc3)CCO[C@]1([H])CN(S(=O)(=O)C1CC1)C2,1.378% & -2.041%,-10.75%
Cc1ccc(C(=O)N2CCc3c(CNS(C)(=O)=O)cncc3C2)o1.Cl,-12.37%,-6.845%
Cc1cnn(CC2CN(CC(=O)Nc3nccs3)CCO2)c1 (stereo unspecified),24.08%,14.51%
CCC1CN(C(=O)c2cccc(O)c2)CCC(=O)N1Cc1ccccc1 (stereo unspecified),23.34%,11.13% & -0.4717%
[H][C@]12C(=O)N[C@H](Cc3c[nH]c4ccccc34)C(=O)N1CC[C@@H]2NC(C)=O,-49.69% & -4.15%,-37.02%
O=C(Cc1ccsc1)N1CCC[C@@H]1Cn1c(=O)oc2ccccc21,-20.85%,-12.13% & 4.872%
CC(C)CC(O)C1CCN(Cc2cnc(-c3cccs3)nc2)CC1 (stereo unspecified),1.175% & 3.426%,2.026%
Cc1ccccc1C(=O)NC[C@@H]1CCN(C(=O)C2(O)CCCC2)C[C@H]1O,-8.904% & -22.68%,-5.969%
Cn1c(C(=O)NC2CCCC2)nc2c1CCN(Cc1ccccc1)C2,8.872%,-5.124%
Cc1nccnc1N1CCC2(CCCN(C3CCOCC3)C2=O)C1 (stereo unspecified),-41.38%,-30.83%
CCCc1cncnc1N1CCC(NCCc2nc(O)cc(O)n2)CC1,17.5% & 6.877%,-7.657%
CCC(=O)NC(c1ccc(C)cc1)c1cccc(S(C)(=O)=O)c1 (stereo unspecified),12.34%,-18.4%
CC(C)(C)c1cn2nc(N3CCC[C@@H]3CO)sc2n1,5.748%,8.896%
CCN(c1ccc(C(=O)NCCCN2CCOCC2)cc1)S(=O)(=O)CC,-8.937% & -34.31%,-25.12%
Cc1nc(-c2ccccc2)nc2c1CCN(Cc1nccn1C)CC2,8.436%,-2.266%
COCc1nnc2n1CCN(Cc1ccoc1)C2.O=C(O)C(F)(F)F,-4.015% & 17.68%,-16.46%
O=C(NCc1cc2n(n1)CCCNC2)C1(c2ccccc2)CCCCC1,23.62%,14.16%
CCC(=O)N1CCC(c2nc(O)c3c(n2)CN(C2CCCCC2)CC3)C1 (stereo unspecified),6.05%,-34.61%
O=c1c(-c2ccnc(N3CCCC[C@@H]3CO)n2)cnc2sccn12,29.18%,-4.138%
CC(Cn1cccn1)NC(=O)N1CCC(NS(C)(=O)=O)CC1 (stereo unspecified),13.41% & -2.473%,6.671% & -2.461%
COCCCN(Cc1cnc(C2CCCCC2)nc1)C1CCN(C)CC1,25.61% & 2.16%,1.509%
CCS(=O)(=O)N1CCc2c(CN3CCOCC3)cncc2C1.Cl.Cl,35.71%,16.41%
Cc1nccc(CNS(=O)(=O)N(C)Cc2ccc(Cl)cc2)n1,38.8%,28.23%
CN(C)CCOCC1CN(C(=O)c2cccn2C)Cc2ccnn2C1.O=C(O)C(F)(F)F.O=C(O)C(F)(F)F (stereo unspecified),-55.3% & -8.433%,-39.81%
CCC(NC(=O)CS(=O)(=O)C1CCCC1)c1cc(F)ccc1F (stereo unspecified),-22.15%,-9.851% & 0.1115%
O=C(O)C(F)(F)F.[H][C@]12CCC[C@@]1(COCc1ccncc1)CN(C(=O)c1ccc(F)cc1)C2,21.65% & 34.32%,18.8% & -17.66%
CC(C)(O)c1cn(C2CCN(c3ncccc3Cl)CC2)nn1,-11.77%,-0.9385%
Nc1nc2c(c(N3CCOCC3)n1)CCN(C(=O)c1ccc[nH]1)CC2,8.165%,-8.019% & -2.77%
CS(=O)(=O)NCCNC(=O)NC1(c2ccc(Cl)cc2)CCC1,-0.2196%,-5.664%
CCc1ccc(C(=O)N2CCN(CC(C)O)CC2)o1 (stereo unspecified),8.704%,-23.71%
Cc1cc(C(=O)N2CCN(Cn3cc(Cl)cn3)CC2)on1,-4.855%,-19.77%
CC(=O)NCC(=O)N1Cc2nccn2CC(CN(C)C(C)C)C1.O=C(O)C(F)(F)F (stereo unspecified),-29.66%,-38.37%
COc1ccc(Cl)cc1-n1c(COC(C)C)n[nH]c1=O,-3.978% & 1.51%,3.976% & -7.595%
[H][C@@]12CCN(C[C@@H]1CN(C)c1ccccc1)[C@@H](CNC(=O)COC)C2,-5.145% & 6.945%,-8.246%
COc1ccc(OC2CCN(c3ccncc3)CC2)cc1,11.45% & 22.57%,15.29%
CCOCC1c2c(ncn2C)CCN1C(=O)c1cnc(C)cn1.O=C(O)C(F)(F)F (stereo unspecified),5.15%,-11.82%
[H][C@]12CCN(C(=O)CCC(C)C)CC[C@@]1([H])S(=O)(=O)CCN2S(C)(=O)=O,3.74%,4.374% & 2.167%
CC(C)(C)OC(=O)NCCC(=O)N(CCC#N)Cc1ccco1,10.78% & 5.378%,24.66%
Cc1ccc2nc(C3CCCN(Cc4ccccc4)C3)nc(O)c2c1 (stereo unspecified),12.23%,7.504%
Cc1ccc2c(c1)c(CNC(C)Cn1nc(C)cc1C)nn2C (stereo unspecified),-18.4%,-32.92%
CN(C)c1cc(C(=O)NCCc2n[nH]c(=O)[nH]2)ccn1,6.368% & -6.205%,-11.56%
Cc1cc(C(=O)NC(C)C(=O)Nc2cc(F)ccc2C)nc(C)n1 (stereo unspecified),-21.58%,-33.5%
CN(CC(F)(F)F)C(=O)Cn1cc(NC(=O)C(C)(C)C)cn1,-1.347%,18.73%
Cc1cc(C(=O)NCc2ccnc(N3CCN(C)CC3)c2)no1,-0.05341%,3.82%
CCOc1ccccc1C(C(=O)O)N(C)CC1CCOCC1 (stereo unspecified),12.63%,5.432%
CC(=O)N1CCC2(CC1)CC(NC(=O)N(C)C)c1cc(C)ccc12 (stereo unspecified),3.116%,6.421%
CCc1c(C(=O)O)nnn1-c1cc(C)ccc1C,8.488%,4.364%

Some entries from above, unchanged:

With Cc1ccc(C(=O)N2CCc3c(CNS(C)(=O)=O)cncc3C2)o1.Cl the screen gave Mtb glucose medium: -12.37%; Mtb cholesterol medium: -6.845%.
With CCOc1ccccc1C(C(=O)O)N(C)CC1CCOCC1 (stereo unspecified) the screen gave Mtb glucose medium: 12.63%; Mtb cholesterol medium: 5.432%.
With CC(C)c1nc(N2CCC(N3CCCC(O)C3)CC2)c2cnn(C)c2n1 (stereo unspecified) the screen gave Mtb glucose medium: 19.4%; Mtb cholesterol medium: 17.59%.
With [H][C@@]12CCN(C[C@@H]1CN(C)c1ccccc1)[C@@H](CNC(=O)COC)C2 the screen gave Mtb glucose medium: -5.145% & 6.945%; Mtb cholesterol medium: -8.246%.
With Cc1cnn(CC2CN(CC(=O)Nc3nccs3)CCO2)c1 (stereo unspecified) the screen gave Mtb glucose medium: 24.08%; Mtb cholesterol medium: 14.51%.
With NC(=O)C1CCN(C(=O)C2SCCc3sccc32)CC1 (stereo unspecified) the screen gave Mtb glucose medium: -4.718% & -49.38%; Mtb cholesterol medium: -6.857%.
With Cc1nccc(CNS(=O)(=O)N(C)Cc2ccc(Cl)cc2)n1 the screen gave Mtb glucose medium: 38.8%; Mtb cholesterol medium: 28.23%.
With CC(C)N1CCC(NCc2cccnc2N(C)Cc2ccccc2)CC1 the screen gave Mtb glucose medium: 5.068%; Mtb cholesterol medium: 23.35%.

Data taken from ChEMBL document CHEMBL3988442, “University of Dundee, Small-Polar-MMV Screening Library” (2021).